Source: patent US20030165934A1
These are yes or no findings as the source states them, for the method shown. In cells and extracts the contact can be indirect. Some entries that bind do so weakly or less than the wild type. Tags and fused reporters may be left off the sequences shown.

Amino acid sequences for entries named in this document (tags omitted). A change or cut given only in a name is not applied to a line headed by its entry.
UniProt P35250: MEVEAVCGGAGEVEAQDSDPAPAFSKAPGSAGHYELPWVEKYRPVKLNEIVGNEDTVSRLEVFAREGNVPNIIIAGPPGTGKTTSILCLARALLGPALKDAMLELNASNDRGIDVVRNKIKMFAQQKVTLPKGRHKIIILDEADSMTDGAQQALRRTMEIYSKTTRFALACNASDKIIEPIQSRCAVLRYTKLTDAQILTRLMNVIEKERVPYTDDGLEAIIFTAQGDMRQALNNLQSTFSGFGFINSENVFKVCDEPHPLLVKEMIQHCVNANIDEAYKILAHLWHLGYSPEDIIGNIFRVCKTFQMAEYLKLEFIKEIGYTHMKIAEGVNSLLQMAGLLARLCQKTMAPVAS

Biological target: RFC2-5 subunits (UniProt P35250)
Experiment: co-purification through the Flag tag from baculovirus infected insect cells

B1: recombinant human Rad17 protein tagged with a Flag epitope at its N terminus, purified from baculovirus infected insect cells (protein, not shown: small tags and cut ends)
chain: MNQVTDWVDPSFDDFLECSGVSTITATSLGVNNSSHRRKNGPSTLESSRFPARKRGNLSSLEQIYGLENSKEYLSENEPWVDKYKPETQHELAVHKKKIEEVETWLKAQVLERQPKQGGSILLITGPPGCGKTTTLKILSKEHGIQVQEWINPVLPDFQKDDFKGMFNTESSFHMFPYQSQIAVFKEFLLRATKYNKLQMLGDDLRTDKKIILVEDLPNQFYRDSHTLHEVLRKYVRIGRCPLIFIISDSLSGDNNQRLLFPKEIQEECSISNISFNPVAPTIMMKFLNRIVTIEANKNGGKITVPDKTSLELLCQGCSGDIRSAINSLQFSSSKGENNLRPRKKGMSLKSDAVLSKSKRRKKPDRVFENQEVQAIGGKDVSLFLFRALGKILYCKRASLTELDSPRLPSHLSEYERDTLLVEPEEVVEMSHMPGDLFNLYLHQNYIDFFMEIDDIVRASEFLSFADILSGDWNTRSLLREYSTSIATRGVMHSNKARGYAHCQGGGSSFRPLHKPQWFLINKKYRENCLAAKALFPDFCLPALCLQTQLLPYLALLTIPMRNQAQISFIQDIGRLPLKRHFGRLKMEALTDREHGMIDPDSGDEAQLNGGHSAEESLGEPTQATVPETWSLPLSQNSASELPASQPQPFSAQGDMEENIIIEDYESDGT
- binding: binds
